For assay [1], the target named is Rad51, yeast two-hybrid fusion (S. cerevisiae) (UniProt P25454). The experiment in a line: two-hybrid; bait (pGBDUC1) and prey (pGADC1) vectors in PJ69-4A; serial dilutions spotted on SC-Leu-Ura- and SC-Leu-Ura-His- (HIS3 reporter), 30 °C, 4 days.
Assay [2] deals with Rad51 (S. cerevisiae) (UniProt P25454). The experiment in a line: co-IP; Rad51 immunoprecipitated with anti-Rad51 antibody from yeast lysates (Rad51 overexpressed from a plasmid), IP fraction blotted for Hsp82 and Aha1; strains WT, hda1Δ, aha1Δ and hsp82 mutant strains (K27Q, K27R, K274Q, K274R, K178R); rad51Δ as negative control; blots quantified with Image J.

Protein sequences, listed by entry. Tags and fused reporters are not part of them.
UniProt P25454: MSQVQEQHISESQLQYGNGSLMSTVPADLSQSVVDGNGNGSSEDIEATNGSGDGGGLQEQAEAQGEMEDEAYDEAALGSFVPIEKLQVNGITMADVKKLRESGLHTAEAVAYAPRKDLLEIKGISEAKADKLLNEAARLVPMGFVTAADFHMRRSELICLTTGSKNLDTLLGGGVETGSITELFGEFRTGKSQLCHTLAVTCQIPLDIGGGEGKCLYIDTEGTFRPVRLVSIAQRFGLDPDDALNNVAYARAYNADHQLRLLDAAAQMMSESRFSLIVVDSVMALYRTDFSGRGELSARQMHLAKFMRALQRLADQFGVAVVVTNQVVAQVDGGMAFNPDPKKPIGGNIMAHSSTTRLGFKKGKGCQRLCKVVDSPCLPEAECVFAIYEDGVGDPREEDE
UniProt Q12449: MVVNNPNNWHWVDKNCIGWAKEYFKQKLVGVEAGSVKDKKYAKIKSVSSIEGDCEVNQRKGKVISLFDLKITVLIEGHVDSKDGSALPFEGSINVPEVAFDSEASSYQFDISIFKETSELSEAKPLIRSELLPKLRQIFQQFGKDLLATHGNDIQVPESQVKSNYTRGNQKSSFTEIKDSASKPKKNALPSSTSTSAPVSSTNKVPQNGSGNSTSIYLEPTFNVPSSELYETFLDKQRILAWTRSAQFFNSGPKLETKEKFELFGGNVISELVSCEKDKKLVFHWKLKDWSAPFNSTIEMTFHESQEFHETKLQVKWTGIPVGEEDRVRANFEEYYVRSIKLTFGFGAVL

No constants are given. Whether binding was seen depends on the method and setting. For some assays here: Binding seen in cells or lysates may run through a third protein. Some binding calls cover weakened binding; strength is not graded here.

Turning to “Aha1, yeast two-hybrid fusion (from UniProt Q12449 1-350)”, the binding entry in assay [1] is recorded as “binds weakly”. With Aha1 (from UniProt Q12449 1-350), the binding result in assay [2] is on record as “binds”.

The values are drawn from publication PMC11154708.
